These are yes or no findings as the source states them, for the method shown. In cells and extracts the contact can be indirect. Some entries that bind do so weakly or less than the wild type. For part of these data: Sequences can lack the tags named with a protein.
Legend:
[1] = target: T1, RBM41 (endogenous, HeLa nuclear extract) (human (endogenous in HeLa)) (UniProt Q96IZ5); test: co-sedimentation; 10–30% glycerol gradient of HeLa S3 nuclear extract, 29 000 rpm, 4°C, 18 h; fractions analysed by western and northern blot
T1 sequence: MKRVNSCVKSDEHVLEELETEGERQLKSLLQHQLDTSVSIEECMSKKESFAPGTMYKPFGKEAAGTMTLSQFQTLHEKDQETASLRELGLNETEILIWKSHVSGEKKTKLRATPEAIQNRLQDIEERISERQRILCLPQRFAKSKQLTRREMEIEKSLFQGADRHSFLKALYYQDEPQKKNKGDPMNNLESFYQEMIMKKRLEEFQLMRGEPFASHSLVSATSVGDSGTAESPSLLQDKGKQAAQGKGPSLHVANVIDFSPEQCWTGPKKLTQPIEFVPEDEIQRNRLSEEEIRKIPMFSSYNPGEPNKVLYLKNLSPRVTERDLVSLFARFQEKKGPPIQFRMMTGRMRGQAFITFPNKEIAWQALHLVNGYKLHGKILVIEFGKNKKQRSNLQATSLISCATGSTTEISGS

The chains behind the UniProt entries cited, without tags or fusion partners.
UniProt Q8TBF4: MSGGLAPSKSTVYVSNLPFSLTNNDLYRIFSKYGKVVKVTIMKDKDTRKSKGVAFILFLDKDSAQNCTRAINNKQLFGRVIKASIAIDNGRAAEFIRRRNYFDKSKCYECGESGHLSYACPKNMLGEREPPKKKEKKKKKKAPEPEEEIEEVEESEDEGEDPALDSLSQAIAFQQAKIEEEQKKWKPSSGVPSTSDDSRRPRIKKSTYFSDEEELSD

V5-RBM41 (human) = target: T2, V5-RBM41 (human) (UniProt Q96IZ5); test: co-IP; anti-V5 or control antibody crosslinked (BS3) to Dynabeads Protein G; lysate of Flp-In T-REx 293 cell lines expressing V5-RBM41 or V5-65K; lysis buffer 20 mM HEPES pH 7.9, 137 mM NaCl, 10% glycerol, 1% NP-40; western blot
T2 sequence: T1 sequence

V5-65K (human) = target: T3, V5-65K (human) (UniProt Q96LT9); test: as above
T3 sequence: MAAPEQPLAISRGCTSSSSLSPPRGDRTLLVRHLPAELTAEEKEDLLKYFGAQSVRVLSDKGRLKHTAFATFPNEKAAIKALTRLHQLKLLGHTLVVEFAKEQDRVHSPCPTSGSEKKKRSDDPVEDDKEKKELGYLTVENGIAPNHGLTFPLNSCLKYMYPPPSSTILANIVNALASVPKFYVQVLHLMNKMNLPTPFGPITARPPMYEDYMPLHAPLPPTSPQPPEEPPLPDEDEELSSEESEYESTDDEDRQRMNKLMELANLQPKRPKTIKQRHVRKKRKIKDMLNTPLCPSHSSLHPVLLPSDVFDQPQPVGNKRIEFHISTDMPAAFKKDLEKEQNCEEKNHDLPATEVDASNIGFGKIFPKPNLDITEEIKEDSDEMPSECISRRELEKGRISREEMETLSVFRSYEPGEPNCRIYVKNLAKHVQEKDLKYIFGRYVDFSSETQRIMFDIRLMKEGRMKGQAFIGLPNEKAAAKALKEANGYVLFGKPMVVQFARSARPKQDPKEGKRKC

Measured: binding

U11/U12-31K (ZCRB1) (from UniProt Q8TBF4 1-217)
binds: [1] | V5-RBM41 (human) | V5-65K (human)

From paper PMC11039992
